Experimental data: article PMC6160001
Results are given in words; binding and its absence hold for the method and conditions named. In cells and extracts the contact can be indirect. Some binding calls cover weakened binding; strength is not graded here. Tags and fused reporters may be left off the sequences shown.

Sequences of proteins named here, by UniProt entry; tags and fusion partners are left off.
UniProt P04150: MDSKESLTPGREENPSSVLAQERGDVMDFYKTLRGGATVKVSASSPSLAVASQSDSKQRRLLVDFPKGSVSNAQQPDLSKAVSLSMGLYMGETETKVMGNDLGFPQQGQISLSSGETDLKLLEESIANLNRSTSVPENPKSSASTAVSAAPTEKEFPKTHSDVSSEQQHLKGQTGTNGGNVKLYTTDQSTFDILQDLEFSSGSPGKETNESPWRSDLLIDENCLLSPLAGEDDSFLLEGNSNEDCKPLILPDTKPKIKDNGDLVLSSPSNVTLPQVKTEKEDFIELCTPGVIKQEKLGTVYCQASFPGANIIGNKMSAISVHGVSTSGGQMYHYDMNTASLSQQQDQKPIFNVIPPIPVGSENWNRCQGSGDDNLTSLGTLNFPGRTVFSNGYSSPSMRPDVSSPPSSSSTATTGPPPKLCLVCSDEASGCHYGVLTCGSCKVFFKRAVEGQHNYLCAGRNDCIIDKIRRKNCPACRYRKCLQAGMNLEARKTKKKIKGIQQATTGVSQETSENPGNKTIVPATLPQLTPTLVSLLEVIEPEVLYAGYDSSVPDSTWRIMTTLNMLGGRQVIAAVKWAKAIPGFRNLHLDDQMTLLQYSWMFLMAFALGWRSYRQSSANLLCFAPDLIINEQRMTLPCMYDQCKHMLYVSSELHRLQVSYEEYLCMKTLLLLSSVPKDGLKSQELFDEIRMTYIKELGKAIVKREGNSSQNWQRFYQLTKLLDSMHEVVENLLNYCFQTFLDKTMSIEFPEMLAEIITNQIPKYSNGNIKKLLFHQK

Molecular target: T1, halo-tagged REVERBa (UniProt P20393)
T1 sequence: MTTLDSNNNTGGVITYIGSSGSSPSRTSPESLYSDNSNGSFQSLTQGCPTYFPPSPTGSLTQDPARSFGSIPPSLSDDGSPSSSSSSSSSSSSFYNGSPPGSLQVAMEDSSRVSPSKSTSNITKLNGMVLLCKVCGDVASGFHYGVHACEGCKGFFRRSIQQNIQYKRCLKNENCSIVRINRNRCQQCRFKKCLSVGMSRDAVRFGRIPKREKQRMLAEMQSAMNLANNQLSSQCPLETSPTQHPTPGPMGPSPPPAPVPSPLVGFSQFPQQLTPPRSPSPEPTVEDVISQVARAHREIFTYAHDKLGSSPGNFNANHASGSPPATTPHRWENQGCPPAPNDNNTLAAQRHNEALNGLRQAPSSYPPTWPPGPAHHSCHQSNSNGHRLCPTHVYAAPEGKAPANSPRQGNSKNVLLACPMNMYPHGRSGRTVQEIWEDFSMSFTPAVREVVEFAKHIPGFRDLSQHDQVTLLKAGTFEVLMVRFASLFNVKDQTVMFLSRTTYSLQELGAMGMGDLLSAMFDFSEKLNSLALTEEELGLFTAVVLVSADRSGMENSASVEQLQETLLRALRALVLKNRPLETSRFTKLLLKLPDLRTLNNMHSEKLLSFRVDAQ
Assay: co-IP; HEK293 cells transfected with halo-tagged REVERBa and/or halo-tagged GR; dex (100 nM) or DMSO for 1 hour; lysis in 150 mM NaCl, 20 mM Tris-HCl, 10% glycerol, 1% Triton X-100; precipitated with anti-REVERBa (GSK6F05) or anti-GR antibody, mouse or rabbit IgG as control; protein G or protein A magnetic beads, 4°C

binding: binds
Substance: halo-tagged GR (glucocorticoid receptor) (from UniProt P04150 1-777)
